Reference: PubChem BioAssay AID2685 (National Center for Advancing Translational Sciences (NCATS), 2010)
This is one part of the list. The main result of the screen is listed elsewhere. These columns were measured beside it and carry no call. The list favours compounds with an active or inconclusive main result. Words in brackets tell the shape of the fitted curve; partial curves, single points and poor fits give uncertain potencies.

Assay: qHTS Assay for Lipid Storage Modulators in Drosophila S3 Cells;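 for cell number change: cells counted by Cell Tracker Red CMTPX staining in the red channel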
Settings: BODIPY lipid droplet fluorescence, 18-24 h; for cell number change: measured here: cell count max response, cells fed with added oleic acid
How it was run: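 Laser-scanning cytometry quantifies lipid droplet accumulation (500–530 nm total intensity; droplet/cell object ratio) in oleic acid-fed (400 uM added) Drosophila S3 cells treated with a concentration series. 20 uM Triacsin C defined 100% inhibition.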

[1] = measured here: cell number channel AC50, cells fed with added oleic acid
[2] = measured here: lipid fluorescence (Fed channel) AC50, cells fed with added oleic acid

Row | Structure (SMILES) | cell number change | AC50 [1] | AC50 [2]
1 | NC(=O)c1ccc(NC(=O)CNC(=O)c2sc3ccccc3c2Cl)cc1 | -25.4% | 1.64 µM [falling, full curve, poor fit] | 29.1 µM [falling, single point]
2 | CCCCn1c(SCc2cccnc2)nc2c1c(=O)n(C)c(=O)n2C | – | 3.26 µM [rising, partial curve] | 0.326 µM [rising, partial curve, poor fit]
3 | CN(c1ccccc1)S(=O)(=O)c1ccc(C(=O)NCC(c2ccco2)N2CCCCC2)cc1 (centres undefined) | -14.2% | – | –
4 | COCCN(C(=O)/C=C/c1ccccc1)c1c(N)n(Cc2ccccc2)c(=O)[nH]c1=O | -9.05% | – | –
5 | Cc1ccc(O)c(-c2cc(C(=O)Nc3c(C)n(C)n(-c4ccccc4)c3=O)[nH]n2)c1 | 21% | – | 11.6 µM [rising, partial curve, poor fit]
6 | CCOC(=O)Cc1[nH]nc2c1C(C1C=CCCC1)C(C#N)=C(N)O2 (centres undefined) | -44.8% | 18.4 µM [falling, single point] | –
7 | O=C(CSCc1ccc(Cl)cc1)NCCSCc1ccco1 | -21.6% | – | 7.31 µM [falling, partial curve, poor fit]
8 | O=C(CSc1ccc2nnc(-c3cccnc3)n2n1)Nc1ccc(F)cc1F | -1.56% | – | 6.51 µM [falling, single point]
9 | Cc1cc(NC(=O)CCC(=O)N(c2ccccc2)C(C(=O)NCC2CCCO2)c2cccnc2)no1 (centres undefined) | -18.3% | – | 13 µM [falling, partial curve]
10 | Cc1ccccc1N1CCN(Cc2ccc(Br)o2)CC1 | – | – | 20.6 µM [rising, single point]
11 | Cc1ccc(O)c(C(=O)CC(=O)c2ccccc2Cl)c1 | -61% | 29.1 µM [falling, single point] | –
12 | Cn1cc(CN2CCN(Cc3cccnc3)CC2)c(-c2ccc3c(c2)OCCO3)n1 | 17% | – | 20.6 µM [rising, single point]
13 | O=C1c2ccccc2NC(c2ccccc2)N1c1ccc(O)cc1 (centres undefined) | -7.26% | – | –
14 | CN1CCN(NC(=O)CSc2ccc(Cl)cc2Cl)CC1 | -24.8% | – | 29.1 µM [falling, single point]
15 | CCOc1ccccc1NC(=O)COC(=O)c1c[nH]c2ccccc12 | – | 0.58 µM [rising, single point] | –
16 | c1ccc(NC2=Nc3ccccc3CS2)cc1 | 1.5% | – | 6.51 µM [rising, single point]
17 | CC1S/C(=C(\C#N)C(=O)NCc2ccco2)N(c2ccc(F)cc2)C1=O (centres undefined) | -1.46% | – | –
18 | CC(=O)Nc1ccc(S(=O)(=O)N2CCC(C(=O)NCCc3ccc(Cl)cc3)CC2)cc1 | 31.5% | 6.51 µM [rising, partial curve, poor fit] | –
19 | CCOC(=O)c1c(C)[nH]c(C(=O)CSc2nnc(C3CC3)n2N)c1C | 76.4% | 20.6 µM [rising, partial curve, poor fit] | 6.51 µM [rising, partial curve]
20 | CC(Nc1ccccc1)c1cccnc1 (centres undefined) | 10.3% | – | 0.366 µM [rising, full curve, poor fit]

Only cell number change and AC50 [2], for four of the compounds above:
Row	Structure (SMILES)	cell number change	AC50 [2]
4	COCCN(C(=O)/C=C/c1ccccc1)c1c(N)n(Cc2ccccc2)c(=O)[nH]c1=O	-9.05%	–
5	Cc1ccc(O)c(-c2cc(C(=O)Nc3c(C)n(C)n(-c4ccccc4)c3=O)[nH]n2)c1	21%	11.6 µM [rising, partial curve, poor fit]
6	CCOC(=O)Cc1[nH]nc2c1C(C1C=CCCC1)C(C#N)=C(N)O2 (centres undefined)	-44.8%	–
7	O=C(CSCc1ccc(Cl)cc1)NCCSCc1ccco1	-21.6%	7.31 µM [falling, partial curve, poor fit]

(more compounds)

Row | Structure (SMILES) | cell number change | AC50 [1] | AC50 [2]
21 | Cc1cc(Cn2nc(-c3ccccc3)cc2C(=O)NCc2cccc(Br)c2)on1 | -20% | – | 29.1 µM [falling, single point]
22 | CC(=O)c1cccc(NC(=O)C2C3CCC(C3)C2C(=O)O)c1 (centres undefined) | -6.32% | – | 20.6 µM [rising, single point]
23 | Cc1c(C(=O)NC(=S)Nc2ccc(NC(=O)c3cccs3)cc2)oc2ccccc12 | -16.1% | – | 2.06 µM [falling, full curve]
24 | CCC(=O)NC(=S)NNC(=O)c1ccc(NC(=O)c2ccccc2)cc1 | -32.2% | 23.1 µM [falling, single point] | –
25 | Cc1cccc(-c2ccc3ncnc(NCc4cccs4)c3c2)c1 | -18.4% | – | –
26 | CC(=O)Nc1ccccc1NC(=O)CC(C)(C)C | -111% | 23.1 µM [falling, partial curve] | –
27 | CCCn1nc(C(=O)Nc2nc(-c3ccccn3)cs2)c2ccccc2c1=O | 6.86% | – | –
28 | Cc1cc(NC2CCCCC2)nc(NCc2ccccc2)n1 | -78.6% | 20.6 µM [falling, single point] | 23.1 µM [falling, single point]
29 | CCOc1ccc(NS(=O)(=O)c2ccc(C(=O)N(C)Cc3cccc(OC)c3OC)cc2)cc1 | -30.3% | 14.6 µM [falling, single point] | 29.1 µM [falling, single point]
30 | CCN(CC)CCNC(=O)c1cn(CC)c2ccc(S(=O)(=O)N(C)C)cc2c1=O | -38% | 0.146 µM [falling, full curve] | 3.66 µM [falling, full curve]
31 | Cc1ccccc1NC(=O)NC(N)=O | -0.956% | – | 20.6 µM [rising, partial curve]
32 | COc1ccc(CCNC(=O)C(NS(=O)(=O)c2cccc3nsnc23)C(C)C)cc1OC (centres undefined) | 24.1% | – | 16.4 µM [falling, partial curve]
33 | CCC(C)c1ccc(NC(=O)c2[nH]c(C)c(C(C)=O)c2C)cc1 (centres undefined) | 5.86% | – | 0.164 µM [falling, full curve]
34 | N#Cc1cccc(NC(=O)NCCc2c[nH]c3ccccc23)c1 | 15.4% | – | 3.66 µM [rising, partial curve]
35 | O=C(O)c1ccc(S(=O)(=O)N2CCC3(CC2)CC(=O)c2ccccc2O3)cc1 | 23.6% | – | –
36 | COc1ccc(CCNC(=O)C2CCN(c3ccc(N4CCOCC4)nn3)CC2)c(OC)c1 | – | 4.61 µM [falling, partial curve, poor fit] | –
37 | CCN(CC)CCn1cnc2c([nH]c3cccc(OC)c32)c1=O | -36.4% | 3.26 µM [falling, full curve] | 3.66 µM [falling, full curve]
38 | COC(=O)CNC(c1ccccc1)c1cc(C)ccc1NC(=O)CNC(=O)OCc1ccccc1 (centres undefined) | – | 1.64 µM [rising, partial curve] | 0.184 µM [falling, full curve, poor fit]
39 | O=C(NC1CCCC1)c1ccc(COCC(F)(F)C(F)F)o1 | -21% | 1.16 µM [falling, full curve, poor fit] | 0.00731 µM [falling, full curve]
40 | O=C(NCc1ccccc1Cl)NC(=O)c1csc([N+](=O)[O-])c1 | – | – | 4.11 µM [rising, partial curve, poor fit]

Row | Structure (SMILES) | cell number change | AC50 [1] | AC50 [2]
41 | CCCNC(=O)COC(=O)/C=C/c1ccco1 | 6.89% | – | 20.6 µM [rising, partial curve, poor fit]
42 | O=C(Nc1sc2c(c1C(=O)c1ccccc1)CCCC2)c1cccnc1 | 39.8% | 10.3 µM [rising, partial curve] | –
43 | CCN(CC)CCCN1C(=O)C(=O)/C(=C(/O)c2cc(C)ccc2C)C1c1cccnc1 (centres undefined) | -3.09% | 0.411 µM [falling, full curve, poor fit] | 0.00461 µM [falling, full curve, poor fit]
44 | O=S(=O)(c1ccccc1F)N1CCN(C(=S)NCc2ccccc2)CC1 | 46% | 9.2 µM [rising, partial curve] | –
45 | CSc1nnc(-c2cccs2)n1-c1ccccc1 | -0.219% | – | –
46 | COc1ccc(C(=O)COC(=O)/C=C/c2ccccc2)c(OC)c1 | 3.62% | – | 6.51 µM [rising, single point]
47 | COc1ccccc1NS(=O)(=O)c1cccc(NC(=O)c2ccc3ccccc3n2)c1 | -21.1% | – | 29.1 µM [falling, single point]
48 | O=C1C(=O)N(Cc2cccs2)c2ccccc21 | -22% | – | –
49 | O=C(CSc1nc2[nH]c(=O)cc(O)c2s1)Nc1nccs1 | -1.43% | – | 3.66 µM [rising, single point]
50 | Cc1ccc(C(=O)NC(=S)Nc2ccc(S(=O)(=O)N(C)c3ccccc3)cc2)cc1 | 9.81% | – | 20.6 µM [rising, partial curve]
51 | O=C(c1ccncc1)N1N=C(c2ccc(Cl)cc2)CC1c1ccccc1O (centres undefined) | 0.427% | 6.51 µM [rising, single point] | 16.4 µM [rising, partial curve]
52 | CCOc1ccc(Nc2nc(Cc3nnc(SCC(=O)c4ccc(C)cc4)o3)cs2)cc1 | – | 0.92 µM [rising, full curve] | 6.51 µM [rising, single point]
53 | C=CCn1c(SCc2ccc(F)cc2)nnc1-c1sc2nc(C)cc(C)c2c1N | – | – | 0.82 µM [rising, full curve]
54 | CNC(=O)C(C)Sc1ccc(S(=O)(=O)N2CCOCC2)cn1 (centres undefined) | -13.3% | – | 29.1 µM [falling, single point]
55 | CCOc1ccc(C(=O)NN2C(=S)NC(C)(C)C=C2C)cc1 | -35.2% | – | 6.51 µM [rising, single point]
56 | Cc1ccc(CN2CC34C=CC(O3)C(C(=O)NCc3ccco3)C4C2=O)cc1 (centres undefined) | 44.8% | 29.1 µM [rising, single point] | –
57 | CC1CN(CCCSc2ccc(Cl)cc2)CC(C)O1 (centres undefined) | 5.58% | – | –
58 | CCC1CCCCN1S(=O)(=O)c1ccc(NC(=O)C2CCN(C(=O)c3ccco3)CC2)cc1 (centres undefined) | 5.13% | – | –
59 | CCN1/C(=C/c2ccc3ccc(C)cc3[n+]2CC)Sc2ccccc21 | -43.6% | 29.1 µM [falling, single point] | 3.26 µM [falling, partial curve]
60 | O=C(CCCO)CCCCCCCCC[C@H]1N[C@H](CO)[C@@H](O)[C@@H]1O | -20% | – | 0.82 µM [falling, full curve]
